Data as given in PubChem BioAssay AID652243 (Drosophila RNAi Screening Center, 2013).
Test: 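Knock-downs that decrease or increase androgen receptor reporter signal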 (primary screen). System: Drosophila S2R+ cells. Reagents: long dsRNA against Drosophila genes. Duration: 72 h (48 h, then 24 h hormone). Challenge: synthetic androgen R1881 at 10 nM for 24 h. Measurement: 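Firefly light from an androgen-responsive reporter and Renilla control light per well, raw and unnormalised, for each of two replicates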. Direction: firefly reporter light: higher = more light from androgen-responsive reporter; Renilla control light: higher = more constitutive control signal (cell number, transfection). Call rule: 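Across duplicate plates, a knock-down whose log firefly/Renilla ratio shifted a set fold down or up from the GFP/LacZ control mean was a hit; the downward cut appears as both 1.5 and 3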. Calls: active = hit: reporter lowered or raised; inactive = no hit.
In all, the deposit lists about 24,000 reagents; this is a random part of those with a known target gene and a result. In the full data, 246 (1%) are marked active. 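Plates not normalised; calls are printed but the firefly/Renilla ratio behind them is not deposited; fold cut for lowering reported inconsistently.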 Raw values vary from plate to plate and are shown uncorrected. Reagents against one gene are numbered here. Not stated in the record: the amount of reagent.

Target gene	dsRNA no.	firefly reporter light, replicate 1	firefly reporter light, replicate 2	Renilla control light, replicate 1	Renilla control light, replicate 2	outcome
CG1998	1	3.38e5	3.35e5	3.81e6	3.61e6	inactive
bru1	1	32180	44444	76078	99133	inactive
bru1	2	9916	12308	48059	94449	inactive
bru1	3	2.07e5	1.84e5	1.53e5	1.84e5	inactive
bru1	4	2.61e5	1.59e5	2.29e5	1.76e5	inactive
bru1	5	6.00e5	8.84e5	9.00e5	1.39e6	inactive
CG10477	1	1.25e5	1.16e5	1.36e6	1.38e6	inactive
CG10477	2	1.30e6	1.45e6	1.32e6	1.02e6	inactive
CG31219	1	2.52e5	3.12e5	2.81e6	3.35e6	inactive
Sur-8	1	81431	59393	1.49e6	8.70e5	inactive
Gk1	1	9.30e5	6.01e5	1.07e6	8.39e5	inactive
Gk1	2	59820	99889	6.26e5	1.12e6	inactive
RecQ5	1	1.38e6	1.10e6	2.16e6	2.39e6	inactive
Mur11Da	1	8.60e5	1.92e5	6.35e5	1.70e5	inactive
pasi1	1	6.65e5	6.70e5	2.07e6	1.46e6	inactive
pasi1	2	8.72e5	6.60e5	3.35e6	2.48e6	inactive
pasi1	3	3.53e5	2.42e5	5.94e5	6.08e5	inactive
CG13043	1	2.86e5	2.53e5	2.76e6	2.17e6	inactive
CG13043	2	7.00e5	7.63e5	1.48e6	1.46e6	inactive
GAA1	1	62827	59845	4.28e5	4.20e5	inactive
CG12104	1	9.24e5	9.03e5	2.23e6	1.88e6	inactive
CG12104	2	2.42e5	3.43e5	7.02e5	8.85e5	inactive
ey	1	2.13e5	1.52e5	3.81e6	1.44e6	inactive
ey	2	2.83e5	2.83e5	4.76e5	4.28e5	inactive
CG34249 (retired record)	1	8.75e5	9.07e5	2.18e6	2.14e6	inactive
SmydA-9	1	3.08e5	3.53e5	2.72e6	3.17e6	inactive
Orcokinin	1	2.45e5	2.72e5	2.23e6	1.74e6	inactive
CG33490	1	9.94e5	6.90e5	1.01e6	9.34e5	inactive
eEF2	1	1.90e5	2.87e5	1.37e6	1.71e6	inactive
CheA84a	1	8.11e5	9.15e5	1.46e6	1.42e6	inactive

Records listed so far whose gene name begins with E or e:
Target gene	dsRNA no.	firefly reporter light, replicate 1	firefly reporter light, replicate 2	Renilla control light, replicate 1	Renilla control light, replicate 2	outcome
ey	1	2.13e5	1.52e5	3.81e6	1.44e6	inactive
ey	2	2.83e5	2.83e5	4.76e5	4.28e5	inactive
eEF2	1	1.90e5	2.87e5	1.37e6	1.71e6	inactive

The results go on.
Target gene	dsRNA no.	firefly reporter light, replicate 1	firefly reporter light, replicate 2	Renilla control light, replicate 1	Renilla control light, replicate 2	outcome
Fadd	1	2.76e5	2.83e5	3.27e6	3.13e6	inactive
CG15602	1	4.02e5	4.35e5	3.99e6	2.89e6	inactive
CG15602	2	7.36e5	7.52e5	5.78e5	6.67e5	inactive
gukh	1	1.65e5	2.43e5	2.49e6	2.76e6	inactive
gukh	2	2.11e5	2.30e5	2.56e6	2.46e6	inactive
gukh	3	1.33e5	58624	6.12e5	6.02e5	inactive
CG34026	1	6.68e5	7.15e5	1.81e6	1.65e6	inactive
EloA	1	8397	15908	1.68e5	1.91e5	inactive
EloA	2	4.29e5	4.32e5	5.05e5	6.28e5	inactive
CG15431	1	1.06e5	84198	7.01e5	5.96e5	inactive
CG15431	2	2.28e5	2.98e5	7.03e5	7.03e5	inactive
CG34386	1	65762	86868	1.42e6	1.42e6	inactive
CG34386	2	5.92e5	6.57e5	1.45e6	1.29e6	inactive
CG34386	3	4.47e5	5.09e5	1.09e6	1.09e6	inactive
Arc2	1	30879	32725	6.59e5	6.59e5	inactive
Arc2	2	4.20e5	4.85e5	1.34e6	1.22e6	inactive
Fer2	1	2.25e5	3.65e5	3.32e6	3.21e6	inactive
Or59c	1	2.02e5	2.20e5	1.20e6	9.37e5	inactive
Lsp1beta	1	7.69e5	8.68e5	1.79e6	1.48e6	inactive
Lsp1beta	2	3.30e5	4.67e5	3.47e5	3.82e5	inactive
CG32829	1	4.30e5	3.69e5	3.04e6	2.70e6	inactive
CG32829	2	2.83e5	5.09e5	6.98e5	1.38e6	inactive
CG43894	1	2.79e5	2.35e5	2.06e6	1.50e6	inactive
CG43894	2	1.14e6	1.07e6	8.27e5	8.40e5	inactive
CG43894	3	1.29e6	9.49e5	2.63e6	2.11e6	inactive
dpp	1	2.38e5	2.85e5	7.79e5	6.04e5	inactive
dpp	2	2.83e5	2.45e5	1.09e6	9.16e5	inactive
dpp	3	78500	78844	8.48e5	6.00e5	inactive
dpp	4	4.52e5	4.31e5	5.38e5	6.83e5	inactive
dpp	5					inactive
CG9988	1	2.71e5	1.97e5	1.29e6	1.30e6	inactive
Nox	1	1.03e5	99974	1.65e6	1.65e6	inactive
Nox	2	42554	52629	7.10e5	7.10e5	inactive
Nox	3	2.63e5	1.78e5	6.22e5	7.45e5	inactive
Nox	4	3.93e5	3.06e5	1.74e6	1.72e6	inactive
Nepl14	1	1.51e5	1.71e5	2.16e6	2.11e6	inactive
CG12268	1	1.13e5	1.61e5	1.55e6	1.59e6	inactive
CG12268	2	9.19e5	7.55e5	1.25e6	1.49e6	inactive
mura	1	4.39e5	4.76e5	9.33e5	1.22e6	inactive
mura	2	3.72e5	3.35e5	4.67e5	4.29e5	inactive
CG14710	1	33975	58056	2.83e5	4.93e5	inactive
tbrd-1	1	1.12e5	1.55e5	1.72e6	2.03e6	inactive
rn	1	43689	55167	1.24e6	1.06e6	inactive
rn	2	55286	69694	9.87e5	1.01e6	inactive
rn	3	1.48e5	1.11e5	2.12e6	2.35e6	inactive
rn	4	50762	36222	3.92e5	3.61e5	inactive
rn	5	7.77e5	4.57e5	1.96e6	5.14e5	inactive
rn	6	2.82e5	1.89e5	4.84e5	2.58e5	inactive
